This experiment relates to MX-1 breast xenograft, intrarenal, nude mice, tumor weight. In words: NCI In Vivo Anticancer Drug Screen. Data for tumor model Human Mammary Carcinoma MX-1 Xenograft (intrarenal inoculation) in NU/NU BALB/C (nude) mice. The note with it: T/C endpoint: mean tumor weight change, higher T/C = larger tumour; for T/C: evaluated on day 11. How it is done: The antitumor activity of compounds was measured in mice bearing transplantable tumors. Survival or tumor size were measured and the results are expressed as the measurement made in the treated group (T) divided by the measurement made in the vehicle treated control group (C). The tumor model used in this assay is Human Mammary Carcinoma MX-1 Xenograft (intrarenal inoculation) in NU/NU BALB/C (nude) mice

Setting [1] is: dose: 300.0 mg/kg/injection, schedule: Q04DX003 (ip), vehicle: Klucel (hydroxypropylcellulose) (HPC).

The list does not hold the whole screen: it gathers tests that were run many times, whatever their T/C, doses with no T/C, and many T/C values between a quarter and a half above the control. Other doses and runs of a compound stand elsewhere. T/C gives the treated animals as a percentage of the vehicle group. Schedule codes are those of the source, taken here to give the interval after Q, in days (D) or hours (H), and the number of doses after X. Some T/C values carry the count of animals alive at the toxicity check (mostly the fifth day); without a count, all were alive then. Some doses have a count of surviving animals in place of a T/C: the source holds a T/C of zero for them, seemingly a mark for toxic or unscored doses. Survivors were counted at the toxicity check, usually on the fifth day, unless a day is given; later deaths do not show.

With `C=CC(C)NC(=S)NNC(=S)NC` (stereo unspecified), under “dose: 2400.0 mg/kg/injection, schedule: Q04DX003 (sc), vehicle: saline + alcohol”, the survivor count is recorded as 2 of 6 on day 11.

As to `c1ccc2c(c1)-c1ccccc1C1NC21` (stereo unspecified), the survivor count by setting is: (dose: 150.0 mg/kg/injection, schedule: Q04DX003 (sc), vehicle: saline with Tween-80) 0 of 6 on day 11; (dose: 300.0 mg/kg/injection, schedule: Q04DX003 (sc), vehicle: saline with Tween-80) 0 of 6 on day 11.

As to `CCc1nc(N)nc(N)c1-c1ccc(Cl)c(N=[N+]=[N-])c1`, the survivor count was 0 of 6 on day 11 (dose: 134.0 mg/kg/injection, schedule: Q04DX003 (ip), vehicle: water); 0 of 6 on day 11 (dose: 268.0 mg/kg/injection, schedule: Q04DX003 (ip), vehicle: water); 0 of 6 on day 11 (dose: 536.0 mg/kg/injection, schedule: Q04DX003 (ip), vehicle: water).

With `O=C(CCCN1CCC(C(O)c2ccc(F)cc2)CC1)c1ccc(F)cc1` (stereo unspecified), the survivor count by setting is: (dose: 100.0 mg/kg/injection, schedule: Q04DX003 (ip), vehicle: saline with Tween-80) 3 of 6 on day 11; (dose: 200.0 mg/kg/injection, schedule: Q04DX003 (ip), vehicle: saline with Tween-80) 0 of 6 on day 11.

`C=C1COC(O)(C2OCOC(C3CC(=O)NC(=O)C3)C2O)C1C` (stereo unspecified): the T/C (dose: 75.0 micrograms/kg/injection, schedule: Q04DX003 (ip), vehicle: water) was 139 % of control [5 of 6 alive on day 11]. Further, the survivor count is, setting by setting: (dose: 150.0 micrograms/kg/injection, schedule: Q04DX003 (ip), vehicle: water) 1 of 6 on day 11; (dose: 300.0 micrograms/kg/injection, schedule: Q04DX003 (ip), vehicle: water) 0 of 6 on day 11.

Turning to `COc1ccc(S(=O)(=O)N/N=C/C(=O)O)cc1`, the survivor count (dose: 200.0 mg/kg/injection, schedule: Q01DX010 (sc), vehicle: saline with Tween-80) was 2 of 6 on day 11.

As to `NC(CCl)=NCC12CC3CC(CC(C3)C1)C2`, the T/C (dose: 18.75 mg/kg/injection, schedule: Q04DX003 (sc), vehicle: Klucel (hydroxypropylcellulose) (HPC)) was 135 % of control. In addition, the survivor count (dose: 150.0 mg/kg/injection, schedule: Q04DX003 (sc), vehicle: Klucel (hydroxypropylcellulose) (HPC)) is listed as 2 of 6 on day 11.

`CC[C@](C)(O)C(=O)O[C@H]1C(=O)O[C@@H]2C[C@H]3C(C)=CC(=O)[C@@H](O)[C@]3(C)[C@H]3[C@@]4(O)OC[C@]32[C@@H]1[C@@H](C)[C@H]4O`: the survivor count is, setting by setting: (dose: 1.0 mg/kg/injection, schedule: Q01DX010 (sc), vehicle: Klucel (hydroxypropylcellulose) (HPC)) 2 of 6 on day 11; (dose: 2.0 mg/kg/injection, schedule: Q01DX010 (sc), vehicle: Klucel (hydroxypropylcellulose) (HPC)) 0 of 6 on day 11.

Consider `COc1cc(C(C)c2cc3c(cc2OCCO)OCO3)cc(OC)c1OC` (stereo unspecified), for which, where the note is “dose: 1200.0 mg/kg/injection, schedule: Q04DX003 (ip), vehicle: saline”, the survivor count is 0 of 6 on day 11.

`C/C=C(\C)c1cc(=O)c2c(C)cc3c(c2o1)C(=O)c1c(O)c(C2CC(C)(N(C)C)C(OC(C)=O)C(C)O2)cc(C2CC(N(C)C)C(O)C(C)O2)c1C3=O` (stereo unspecified): under “dose: 40.0 mg/kg/injection, schedule: Q04DX003 (sc), vehicle: saline”, the survivor count was 0 of 6 on day 11.

As to `Cc1ccc2c(c1)C1(C)OC(C=CC1=O)O2` (stereo unspecified), the T/C (dose: 75.0 mg/kg/injection, schedule: Q04DX003 (ip), vehicle: Klucel (hydroxypropylcellulose) (HPC)) was 136 % of control. Further, the survivor count under setting [1] was 0 of 6 on day 11 and the survivor count (dose: 600.0 mg/kg/injection, schedule: Q04DX003 (ip), vehicle: Klucel (hydroxypropylcellulose) (HPC)) is 0 of 6 on day 11.

Consider `CC(=O)O[C@H]1C(=O)[C@@]2(C)[C@H]([C@H](OC(=O)c3ccccc3)[C@]3(O)C[C@H](OC(=O)[C@H](O)[C@@H](NC(=O)c4ccccc4)c4ccccc4)C(C)=C1C3(C)C)[C@]1(OC(C)=O)CO[C@@H]1C[C@@H]2O`, for which the survivor count by setting is: (dose: 7.5 mg/kg/injection, schedule: Q01DX009 (ip), vehicle: Klucel (hydroxypropylcellulose) (HPC)) 3 of 5 on day 11; (dose: 15.0 mg/kg/injection, schedule: Q01DX009 (ip), vehicle: Klucel (hydroxypropylcellulose) (HPC)) 0 of 5 on day 11; (dose: 20.0 mg/kg/injection, schedule: Q01DX009 (ip), vehicle: Klucel (hydroxypropylcellulose) (HPC)) 2 of 6 on day 11; (dose: 22.4 mg/kg/injection, schedule: Q01DX009 (ip), vehicle: Klucel (hydroxypropylcellulose) (HPC)) 3 of 6 on day 11; (dose: 30.0 mg/kg/injection, schedule: Q01DX009 (ip), vehicle: Klucel (hydroxypropylcellulose) (HPC)) 1 of 6 on day 11; (dose: 40.0 mg/kg/injection, schedule: Q01DX009 (ip), vehicle: Klucel (hydroxypropylcellulose) (HPC)) 0 of 6 on day 11.

In the case of `CCC(NC(N)=O)C(CC)NC(N)=O` (stereo unspecified), for the setting “dose: 50.0 mg/kg/injection, schedule: Q04DX003 (ip), vehicle: saline with Tween-80”, the survivor count is reported as 3 of 6 on day 11.

In the case of `C#CCN(Cc1ccc2nc(N)[nH]c(=O)c2c1)c1ccc(C(=O)NC(CCC(=O)O)C(=O)O)cc1` (stereo unspecified), the survivor count (dose: 600.0 mg/kg/injection, schedule: Q04DX003 (ip), vehicle: water) was 1 of 6 on day 11.

For the compound `CN(C)[C@@H]1C(=O)C(C(N)=O)=C(O)[C@@]2(O)C(=O)C3=C(O)c4c(O)ccc(Cl)c4[C@@](C)(O)[C@H]3C[C@@H]12`, the T/C (dose: 600.0 mg/kg/injection, schedule: Q04DX003 (sc), vehicle: saline) was 147 % of control.

Take `O=C1NC(=O)NC(C(=O)O)N1`: the survivor count reads like this: (dose: 800.0 mg/kg/injection, schedule: Q04DX003 (sc), vehicle: Klucel (hydroxypropylcellulose) (HPC)) 2 of 6 on day 11; (dose: 1600.0 mg/kg/injection, schedule: Q04DX003 (sc), vehicle: Klucel (hydroxypropylcellulose) (HPC)) 2 of 6 on day 11.

As to `NC(=O)C1=CC2C3C=CC2(O)C(=O)OC3O1` (stereo unspecified), the survivor count was 2 of 6 on day 11 (dose: 150.0 mg/kg/injection, schedule: Q04DX003 (ip), vehicle: Klucel (hydroxypropylcellulose) (HPC)) and 0 of 6 on day 11 under setting [1].

On to `N/C(=N\O)c1cn(C2OC(CO)C(O)C2O)c2ncnc(N)c12` (stereo unspecified), for which the survivor count reads like this: (dose: 20.0 mg/kg/injection, schedule: Q04DX003 (sc), vehicle: Klucel (hydroxypropylcellulose) (HPC)) 1 of 6 on day 11; (dose: 40.0 mg/kg/injection, schedule: Q04DX003 (sc), vehicle: Klucel (hydroxypropylcellulose) (HPC)) 0 of 6 on day 11.

Turning to `O=C(O)c1ccc(C(=O)O)c(C(=O)O)c1.[NH-]C1CCCCC1[NH-].[Pt+2]`, the survivor count (dose: 25.0 mg/kg/injection, schedule: Q01DX010 (sc), vehicle: sodium bicarbonate) was 2 of 5 on day 11.

With `C=C1C(O)C2OC3(CCC(/C=C/C(C)C4CC5(C)SC5C5(OC(CC(C)(O)C(=O)O)CCC5O)O4)O3)CCC2OC1C(O)CC(C)C1OC2(CCCCO2)CCC1C` (stereo unspecified), the T/C (dose: 20.0 micrograms/kg/injection, schedule: Q04DX003 (ip), vehicle: saline + alcohol) is 135 % of control. In addition, the survivor count is listed as 0 of 6 on day 11 (dose: 80.0 micrograms/kg/injection, schedule: Q04DX003 (ip), vehicle: saline + alcohol); 0 of 6 on day 11 (dose: 160.0 micrograms/kg/injection, schedule: Q04DX003 (ip), vehicle: saline + alcohol); 0 of 6 on day 11 (dose: 320.0 micrograms/kg/injection, schedule: Q04DX003 (ip), vehicle: saline + alcohol).

`CS(C)=O`: the T/C is 144 % of control (dose: 1500.0 mg/kg/injection, schedule: Q01DX010 (sc), vehicle: saline) and 127 % of control (dose: 6000.0 mg/kg/injection, schedule: Q01DX010 (sc), vehicle: saline).

As to `CCOC(=O)[C@]1(Br)CC[C@@]1(Br)C(=O)OCC`, for the setting “dose: 2400.0 mg/kg/injection, schedule: Q04DX003 (sc), vehicle: saline with Tween-80”, the survivor count is 1 of 6 on day 11.

Consider `Cc1cc2c(=O)cc(-c3ccccc3)oc2c(C(=O)O)c1C`, for which the survivor count is reported as 1 of 6 on day 11 (dose: 500.0 mg/kg/injection, schedule: Q04DX003 (ip), vehicle: saline with Tween-80) and 0 of 6 on day 11 (dose: 1000.0 mg/kg/injection, schedule: Q04DX003 (ip), vehicle: saline with Tween-80).

The values above are taken from PubChem BioAssay AID298 (DTP/NCI, 2004).
